One molecule from patent US20050277664A1, “Monoamine neurotransmitter re-uptake inhibitor for the inhibition of beta-amyloid generation” (Boehringer Ingelheim International GmbH, priority 2004, published 2005) can be followed below.

Experiment [1] relates to cerebral Aβ42 levels in APPtg mice. Description: Cerebral Aβ42 levels in APPtg mice after oral treatment. The experiment is classed as in vivo. As for the experimental part:
(§1) APPtg mice at 3 to 4 months of age were used. A compound of formula (IA) was prepared and administered in a suspension of 0.5% Tylose solution.
(§2) Controls were treated with Tylose only. Each group consisted of 12 or 13 mice with equal numbers of each sex. In the short term study, the animals were treated for the time period of 2.5 days. Twice a day, a dose of 3 mg/kg was applied with interruption times of 11.5-12.5 hours. On the last day (day of sacrifice), one dose of 3 mg/kg was administered and the mice were sacrificed 5.5 hours later. […] In a second long term four weeks study, 3 mg/kg/day of compound of formula IA were administered, subdivided into two subdoses, with an interruption time of 10-12 hours during the day. Each version of the in vivo experiments has been performed once.
(§3) The murine brains were rapidly removed from the skull and divided along the medial fissure. The cerebellum was removed before each half was quickly frozen down on a metal plate that had been cooled down on dry ice. Brains were placed in Eppendorf tubes, frozen in liquid nitrogen, and stored at −80° C. until needed for Aβ extractions or compound measurements.
(§4) Brains were thawed on ice. […] The post nuclear supernatants containing the soluble Aβ were collected and measured in a Sandwich ELISA (s.a.). […]

Experiment [2] concerns cerebral Aβ40 levels in APPtg mice. Description: Cerebral Aβ40 levels in APPtg mice after oral treatment. In kind it is in vivo. As for the experimental part: as §1, §2, §3, §4
The mark [3] stands for this setting: per os, 2 weeks, 3.3 mg/kg/day, mean ± SEM.

Molecules are shown by their SMILES.

`COc1cc2c(cc1OC)C(=O)C(CC1CCN(Cc3ccccc3)CC1)C2` (stereo not shown) [Donepezil, reference compound]: the “Level of Aβ42, reduction (−) and/or stimulation (+) of cerebral Aβ levels” value in experiment [1] (setting [3]) is −7.6 ± 7.1%. Besides, the “decrease of Aβ42 levels” value in experiment [1] (two weeks, 3.3 mg/kg once a day, p=0.402) was 7.6%. Besides, in experiment [2] (setting [3]), the “Level of Aβ40, reduction (−) and/or stimulation (+) of cerebral Aβ levels” value is “+9.6 ± 3.1 %”. Also, the “increase of Aβ40 levels” value in experiment [2] (two weeks, 3.3 mg/kg once a day, p=0.022) is 9.6%.
